Laboratory results reported in US20160199463A1, “HDAC2 DEFENDS VASCULAR ENDOTHELIUM FROM INJURY” (The Johns Hopkins University, priority 2014, published 2016).

System: Arg2
Test: Arg2 protein expression in HAECs (Western blot)
Type: cell-based, human
Protocol: After 48 hrs of HAEC cells transfection, cells were lysed in ice cold RIPA lysis buffer consisting of 20 mM Tris-HCl at pH 7.5, 150 mM NaCl, 1 mM EDTA, 1 mM EGTA, 1% NP40, 1% sodium deoxycholate, 1 mM Na3VO4, 2.5 mM sodium pyrophosphate, 1 mM 3-glycerophosphate, 1 μg/mL leupeptin, and a 1:1000 diluted protease inhibitor cocktail (Sigma). For immunoprecipitation studies, whole cell lysate lysates were centrifuged at 14,000×g and supernatants were precleared by incubation with Protein A/G-agarose beads for 2 h at 4° C. with rocking. Agarose beads were then pelleted by centrifugation at 1,000×g. FLAG-Arg2 in precleared lysates were immunoprecipitated by incubation overnight at 4° C. with rocking following addition of anti-FLAG antibody (10 μl). Immune complexes were eluted in 2×SDS sample buffer by boiling for 5 minutes before loading into SDS-PAGE. Western blotting analysis was performed by transferring the SDS gel onto a PVDF membrane and visualized using secondary antibodies conjugated to alkaline phosphatases.

O=C(CCCCCCC(=O)Nc1ccccc1)NO [SAHA, Suberoylanilide Hydroxamic Acid]
Arg2 expression, broad-spectrum HDAC inhibitors: upregulated
